For orientation: AC50 means the concentration at which the activity in the assay is half-maximal. Read a high AC50 as weaker potency.

SMILES strings stand for the structures. The list shows a part of the results. The main result of the screen is listed elsewhere. These columns were measured beside it and carry no call. Most of these compounds were active or inconclusive in the main read-out, so they are no random draw. The note in brackets gives the kind of curve behind each potency; many fits are weak.

A short description of the test: qHTS Assay for Lipid Storage Modulators in Drosophila S3 Cells.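 For cell number change: cells counted by Cell Tracker Red CMTPX staining in the red channel.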 The settings on record: BODIPY lipid droplet fluorescence, 18-24 h; for cell number change: measured here: cell count max response, cells fed with added oleic acid. The method in brief:
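Laser-scanning cytometry quantifies lipid droplet accumulation (500–530 nm total intensity; droplet/cell object ratio) in oleic acid-fed (400 uM added) Drosophila S3 cells treated with a concentration series. 20 uM Triacsin C defined 100% inhibition.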
For orientation: Quantitative high-throughput screening tests each substance at several concentrations.

Setting [1] is: measured here: lipid fluorescence (Fed channel) AC50, cells fed with added oleic acid.
Where [2] appears, read: measured here: cell number channel AC50, cells fed with added oleic acid.

In the case of `CCOC(=O)Nc1nc(-c2ccc(F)cc2F)cs1`, the cell number change was found to be 23.8%. Further, the AC50 under setting [1] was 6.51 µM [rising, single point].
With `Cc1ccc(-c2csc3ncn(CC#N)c(=O)c23)cc1C`, the cell number change was -8.28%. In addition, the AC50 under setting [2] was 0.58 µM [rising, single point]. For the same compound, under setting [1], the half-maximal activity concentration (AC50) is 0.146 µM [rising, full curve, poor fit].
On to `O=C(c1ccco1)N1CCN(S(=O)(=O)c2ccccc2)CC1`, for which the cell number change amounted to 15.3%. The AC50 under setting [1] is 0.206 µM [rising, full curve, poor fit].
For the compound `O=C(Nc1ccccc1C(=O)N1CCN(CCO)CC1)c1cccc([N+](=O)[O-])c1`, the cell number change is -0.289%. Also, under setting [1], the concentration at half-maximal activity (AC50) was 29.1 µM [rising, single point].
For the compound `CC1(c2ccccc2)NC(=O)N(CC(=O)Nc2ccc3c(c2)OCO3)C1=O` (stereo not given), the cell number change was 18%. Besides, the AC50 under setting [1] is 2.91 µM [rising, single point].
`CC1C2=C(CC(C)(C)CC2=O)NC2=C1C(=O)CC(C)(C)C2`: the cell number change is -17.8%.
`Cc1ccccc1CSc1nc(C(C)(C)C)cc(=O)[nH]1`: the cell number change worked out at 13.1%. For the same compound, under setting [1], the half-maximal activity concentration (AC50) is 1.3 µM [rising, full curve, poor fit].
`CCC(=O)N/N=C(\C)CC(=O)Nc1ccc(F)cc1`: the cell number change was -13.6%.
Take `COc1ccc(OC)c2[nH]c(=O)c(CCNS(=O)(=O)c3ccc(F)cc3)cc12`: the cell number change is -27.6%. In addition, the concentration at half-maximal activity (AC50) under setting [2] was 3.66 µM [falling, full curve, poor fit].
As for `O=C(NNC(=O)c1ccc(Cl)cc1Cl)c1cnccn1`, the cell number change is -19.3%.
Regarding `OCCNc1ncnc2c1nnn2Cc1ccccc1`, the cell number change amounted to 17.2%. Further, the AC50 under setting [1] was 29.1 µM [falling, single point].
As for `COC(=O)C1C(=O)/C(=C(/C)N2CCCC2)C(=O)CC1(C)C` (stereo not given), the cell number change was 48.7%. Besides, the AC50 under setting [2] is 13 µM [rising, partial curve, poor fit].
With `COc1cccc(Nc2ccc(N3CCCCC3)cc2)c1OC`, the cell number change was -56.5%. The concentration at half-maximal activity (AC50) under setting [2] was 0.651 µM [falling, full curve]. Under setting [1], the concentration at half-maximal activity (AC50) was 0.58 µM [falling, full curve].
In the case of `COc1ccc(C(NC(C)=O)c2cc(Cl)c3cccnc3c2O)cc1` (stereo not given), the cell number change was -11.3%. The half-maximal activity concentration (AC50) under setting [2] is 4.11 µM [rising, partial curve]. For the same compound, the AC50 under setting [1] is 23.1 µM [falling, single point].
Take `O=C(O)Cc1ccc(NC(=O)c2ccc(Cl)c(Cl)c2)cc1`: the cell number change came to 29.6%. Under setting [1], the concentration at half-maximal activity (AC50) was 20.6 µM [rising, single point].
In the case of `Cc1ccc(S(=O)(=O)N2CCN(C(=O)c3ccnn3C)CC2)cc1C`, the cell number change turned out to be 25.5%. In addition, the AC50 under setting [1] was 29.1 µM [rising, single point].
Take `COc1ccccc1CNc1ccc(N2CCCCC2)cc1`: the cell number change stood at 12.7%.
Regarding `COc1cc2c(cc1OC)C(c1ccc(-c3ccc(Cl)c(Cl)c3)o1)=NCC2`, the concentration at half-maximal activity (AC50) was 0.517 µM [rising, partial curve, poor fit] under setting [2] and 0.00461 µM [rising, full curve, poor fit] under setting [1].
As for `OCC1(Cc2ccccc2)CCN(Cc2cc3ccccc3o2)CC1`, the cell number change is -12.5%. Further, under setting [1], the AC50 was 0.651 µM [falling, full curve, poor fit].
`Cc1ccc(/C(O)=C2/C(=O)C(=O)N(CCN3CCOCC3)C2c2ccccn2)cc1` (stereo not given): the AC50 under setting [1] was 6.51 µM [falling, single point].
For the compound `COc1ccc(N(CC(=O)NC2CCCC2)S(=O)(=O)c2ccc(NC(C)=O)cc2)cc1`, the cell number change is -31.4%. Besides, the concentration at half-maximal activity (AC50) under setting [2] was 0.0517 µM [falling, full curve, poor fit]. Moreover, the AC50 under setting [1] was 0.13 µM [rising, full curve].
For `C=C1C[C@H]2[C@@H]3C=C(C)C4=CC(=O)CC[C@]4(C)[C@H]3CC[C@]2(C)[C@@]1(OC(C)=O)C(C)=O`, the cell number change is 25.9%. The half-maximal activity concentration (AC50) under setting [2] is 0.651 µM [rising, full curve, poor fit]. Moreover, the AC50 under setting [1] is 1.03 µM [rising, full curve].
In the case of `CCOC(=O)N1CCN(C(=O)c2ccc(N3C(=O)CCC3=O)cc2)CC1`, the cell number change is -33.8%. Also, under setting [2], the AC50 is 0.0366 µM [falling, full curve, poor fit]. Under setting [1], the AC50 is 25.9 µM [falling, partial curve].
Turning to `Cc1ccc(C)c(C(=O)OCC(=O)Nc2cccc(S(=O)(=O)N3CCCCC3)c2)c1`, the cell number change was 7.74%. Besides, the half-maximal activity concentration (AC50) under setting [1] was 32.6 µM [rising, single point].
Consider `CCOc1cccc(/C=C(/C#N)c2nc3ccccc3[nH]2)c1OCC(=O)O`, for which the cell number change was 9.85%. The AC50 under setting [1] was 29.1 µM [rising, single point].
As to `CCOC(=O)/C(N=Nc1ccc(Cl)cc1)=C(/O)c1ccc([N+](=O)[O-])cc1`, the cell number change came out at 37.1%. Besides, the concentration at half-maximal activity (AC50) under setting [2] is 2.31 µM [rising, partial curve]. Moreover, under setting [1], the AC50 is 6.51 µM [rising, single point].
As for `CCN(CC)C(=O)CSc1nc2ccccc2o1`, the cell number change amounted to 9.25%. Besides, the half-maximal activity concentration (AC50) under setting [1] was 0.291 µM [rising, full curve, poor fit].
Turning to `O=C(COC(=O)C1(c2ccccc2F)CCCC1)Nc1ncc(C(F)(F)F)cc1Cl`, the cell number change was -39.1%. Further, the AC50 under setting [2] was 18.4 µM [falling, partial curve, poor fit]. Also, the AC50 under setting [1] was 14.6 µM [falling, partial curve].
Turning to `CCC(=O)Nc1sc(C(=O)OC)c(C)c1C(=O)OC`, the cell number change is -3.46%. Moreover, the AC50 under setting [1] was 0.461 µM [rising, full curve].
As to `COCCN(C(=O)Nc1ccc(OC)cc1)c1nc2ccccc2s1`, the cell number change is -2.76%. Moreover, the half-maximal activity concentration (AC50) under setting [1] was 8.2 µM [falling, partial curve].
Turning to `O=C(NCCc1csc(-c2cccc(F)c2)n1)c1ccco1`, the half-maximal activity concentration (AC50) under setting [1] is 0.116 µM [falling, single point].
Consider `CCN1C(=O)/C(=C/c2ccc(N3CCCC3)cc2)NC1=S`, for which the cell number change is -24.7%.
Regarding `O=C(CNc1ccccc1C(=O)O)c1ccccc1`, the cell number change is 16%. Besides, under setting [1], the AC50 is 0.651 µM [falling, single point].
In the case of `O=C(N/N=C/c1cc([N+](=O)[O-])ccc1O)c1cccc(N2CCCC2=O)c1`, the cell number change is -30.6%. Also, the AC50 under setting [2] was 35.5 µM [falling, single point].
With `NC(=O)COC(=O)c1ccc2c(c1)C(=O)N(Cc1ccco1)C2=O`, the cell number change was found to be 2.52%.
`N#C/C(=C\c1ccc(N2CCCC2)c([N+](=O)[O-])c1)c1nc2ccccc2[nH]1`: the cell number change was -17.2%. The AC50 under setting [1] is 6.51 µM [falling, single point].
Turning to `C#CCN(N(C)c1ncc(C(F)(F)F)cc1Cl)S(=O)(=O)c1ccc2ccccc2c1`, the AC50 under setting [1] was 6.51 µM [rising, single point].
As for `CC(C)c1ccc(/C=N/NC(=O)c2ccccc2Cl)cc1`, the cell number change is -17.6%. Besides, under setting [1], the AC50 is 0.13 µM [falling, full curve, poor fit].

(Values after PubChem BioAssay AID2685 (National Center for Advancing Translational Sciences (NCATS), 2010).)
